The list shows a part of the results.

By UniProt entry, the sequences of proteins in these tests, tags left out.
UniProt Q0JBA9, entry or part of it: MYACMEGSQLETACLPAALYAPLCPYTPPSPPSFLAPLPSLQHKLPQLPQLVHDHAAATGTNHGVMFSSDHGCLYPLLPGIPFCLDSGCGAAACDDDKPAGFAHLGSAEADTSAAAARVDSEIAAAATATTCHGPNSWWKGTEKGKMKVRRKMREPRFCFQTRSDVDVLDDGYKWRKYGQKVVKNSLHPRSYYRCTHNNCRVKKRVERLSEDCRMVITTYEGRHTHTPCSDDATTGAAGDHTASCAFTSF

The experiment addresses OsWRKY34 (Oryza sativa, UniProt Q0JBA9 1-250). Put plainly: protein-binding microarray (RPBM); PBS, 2% BSA, 51.3 ng/ul salmon testes DNA, 50 uM zinc acetate, 200 nM TF, 25 C, 1 h; high values mean tight binding. Conditions: protein: recombinant; tags: N-terminal polyhistidine and DsRed monomer fusion (pET32a); label: CyDye5-dUTP incorporated in the synthesized complementary strand; 3' TTTTT single-stranded linker to array surface; dsDNA, one strand shown. The procedure, abridged:
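Using Ni–NTA, transcription factors fused N-terminally to polyhistidine and DsRed were purified after expression in E. coli BL21-CodonPlus. These were incubated at 200 nM with a blocked, double-stranded custom Agilent array for 1 h at 25 °C in a buffer containing 50 µM zinc acetate, and the array was washed. The binding signal is per-feature fluorescence intensity (arbitrary units) on an Axon 4000B scanner.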
Take “CCGCGGCGTACTACCCGGTCATCGCTGACCCTCTCCTGCACGGAGTCACCTAGTGCAG”: the binding signal was 8470 fluorescence intensity (a.u.).

In the case of “ACCTTCTAGTATTCTCCCGTCCAGCGCATCTGGACCGTCCCGGAGTCACCTAGTGCAG”, the binding signal was 8310 fluorescence intensity (a.u.). The result for “AAATCGTTTCTCAAGTCATTCAGGCATACTCACATCGCACCGGAGTCACCTAGTGCAG” reads 8160 fluorescence intensity (a.u.); that for “TCTCTCTTTCTGGGCGAGGCAAAGCGGTGGGTGCAGAGGGCGGAGTCACCTAGTGCAG”, 9370 fluorescence intensity (a.u.); that for “AAATGCTCTTTCTAAAACTCATTTCCTTGGCAAACGCATACGGAGTCACCTAGTGCAG”, 8940 fluorescence intensity (a.u.). As to “GTGTTGGTTGACATCTCGGAGGATTTGGGTTTGAATTCAACGGAGTCACCTAGTGCAG”, the binding signal is 8960 fluorescence intensity (a.u.).

In the case of “GAGTTATATTTTTCTTCCTTGGTTGTTTTTTTTCTCTCCTCGGAGTCACCTAGTGCAG”, the binding signal was 8520 fluorescence intensity (a.u.). The result for “CAACCGCCGGCCACCTCTCTCTCCCAATTATCCTCTCCTCCGGAGTCACCTAGTGCAG” reads 9240 fluorescence intensity (a.u.); that for “GATTTATGACTGGATTTCACTCGCGGAAGATAGTACGTTTCGGAGTCACCTAGTGCAG”, 8640 fluorescence intensity (a.u.). The same measure for “CACACCCAAAGTAAAGCCCTATATCGGTCTCTTCATTCTCCGGAGTCACCTAGTGCAG”: 10600 fluorescence intensity (a.u.); for “GCGTGTCATTGCGCGGCCGCATCATTTCGTTTTTAAATATCGGAGTCACCTAGTGCAG”: 8270 fluorescence intensity (a.u.); for “ATAGATTTTCTTCCACCCAGGCATGCTTTTTTCTCAGACTCGGAGTCACCTAGTGCAG”: 8660 fluorescence intensity (a.u.). The same measure for “CGACGTCGGTGGGTGGGTTGCCCTCGCCGGCTTGCCGCCTCGGAGTCACCTAGTGCAG”: 9020 fluorescence intensity (a.u.).

In the case of “AGATCTTTGACCTTACTAGAACTTGTTTGGTGGGGTTCCACGGAGTCACCTAGTGCAG”, the binding signal was 10600 fluorescence intensity (a.u.).

Take “GATTCCAACTTTCGATCGAGAGCCTCGCCGTCGATTCCCCCGGAGTCACCTAGTGCAG”: the binding signal was 8760 fluorescence intensity (a.u.). The result for “CTGCTGCCGCCGCCTCCTGGCCGCCGCCGCGGCGAGCGCGCGGAGTCACCTAGTGCAG” reads 8280 fluorescence intensity (a.u.). The result for “TATTACTACCTTCATATTTTAATGTATGACGCCGTTGACTCGGAGTCACCTAGTGCAG” reads 11900 fluorescence intensity (a.u.); that for “ATCAATTCTTCTTTTTTGTGTTTTTCCCTTTCCCTTTTTTCGGAGTCACCTAGTGCAG”, 10600 fluorescence intensity (a.u.); that for “ACCCTGGAAAAATCCCCTTTTCCGTCCGTCCTAGTCCAGTCGGAGTCACCTAGTGCAG”, 8380 fluorescence intensity (a.u.).

Take “AACGTTACCACCGCGTTTTGGTGTCATTTTCAATGCTGCTCGGAGTCACCTAGTGCAG”: the binding signal was 8610 fluorescence intensity (a.u.). The same measure for “GCCTGCGCCGATCCCCATCCATTCCGCGAGCGAGCGAGTGCGGAGTCACCTAGTGCAG”: 8160 fluorescence intensity (a.u.); for “CTTTGCGTCTCCTCCCCTTTCTAATCCACTTTTTATTTTTCGGAGTCACCTAGTGCAG”: 9730 fluorescence intensity (a.u.).

Take “GTCCATCCACAATACTGAAGTTAGATGCATTTAACTTTTTCGGAGTCACCTAGTGCAG”: the binding signal is 8970 fluorescence intensity (a.u.).

For the sequence “ATCCGCCCCTGCTTCTCAATTTTTAACCCGGACATGTTTGCGGAGTCACCTAGTGCAG”, the binding signal was 8570 fluorescence intensity (a.u.). For the sequence “GCCACCTCCTCCTCTATTTTGTTCTCCTCCGCCATCGCCACGGAGTCACCTAGTGCAG”, the binding signal was 11400 fluorescence intensity (a.u.). The same measure for “GCGTATCCGTATTTGGTGGAGTAGGGGAACGGACTCGTGACGGAGTCACCTAGTGCAG”: 9600 fluorescence intensity (a.u.); for “CGGTGACCTCAGTTTGATATCGTGTTGAAACCGCTCTTCTCGGAGTCACCTAGTGCAG”: 8220 fluorescence intensity (a.u.); for “TAATATATGGGATTAGGTGATCGAGAAAAATCCATCGTGACGGAGTCACCTAGTGCAG”: 9000 fluorescence intensity (a.u.). The result for “GAAAATCCTTGTTCTTACCCATCCTTACTCACACTCTGTTCGGAGTCACCTAGTGCAG” reads 10200 fluorescence intensity (a.u.); that for “TTAGGTGCCTGCAGCAGAGCCTCTTACTGTTTCTCATGAACGGAGTCACCTAGTGCAG”, 8450 fluorescence intensity (a.u.). The result for “GGACCACACCAATCTATCTAGTTTAGTGCTCATTTGTCATCGGAGTCACCTAGTGCAG” reads 8130 fluorescence intensity (a.u.); that for “TATGCCTTCCACTTCCACGTCAGCTTTCCCACACTGGTCTCGGAGTCACCTAGTGCAG”, 8280 fluorescence intensity (a.u.); that for “GCACGCACTCATCGCCATCGCCTGCAATCCGACAAGTTCTCGGAGTCACCTAGTGCAG”, 10300 fluorescence intensity (a.u.).

With “CTTCAACACAGTCTTTGAGATGCTACTTTGACTAGAAATACGGAGTCACCTAGTGCAG”, the binding signal was 9260 fluorescence intensity (a.u.). The same measure for “CCCGCAGATTGGATTGGATTGGGTTGGATTGGATTGGATGCGGAGTCACCTAGTGCAG”: 10300 fluorescence intensity (a.u.). As for “TCCCCAACGATCTCATTCTCTTGCTGTCTTGCGTGTTCATCGGAGTCACCTAGTGCAG”, the binding signal was 8730 fluorescence intensity (a.u.).

For “CATCCTTGGCACTACTGTCATTTTACATCCAGCCTAAGTGCGGAGTCACCTAGTGCAG”, the binding signal was 10700 fluorescence intensity (a.u.).

Take “ACAGTCAGTCTCATTACTGGAGTTGCATGCCTGCAATCAACGGAGTCACCTAGTGCAG”: the binding signal is 8060 fluorescence intensity (a.u.). The same measure for “TCTGGCCTCTGGGATTATTCCTACTAACTTCATATTTTAACGGAGTCACCTAGTGCAG”: 8970 fluorescence intensity (a.u.). The same measure for “AAAAAGTCAACAGCATCAAATATTTTGGGGTGGAGGGAGTCGGAGTCACCTAGTGCAG”: 10400 fluorescence intensity (a.u.); for “TTCTGCACTTCTGCTTCACCCCGGCTGACATTGCACACCGCGGAGTCACCTAGTGCAG”: 9020 fluorescence intensity (a.u.). The result for “GGCCGGTTGATTGTGTGGTTGGTGAGGGCGCGAGCTCTGCCGGAGTCACCTAGTGCAG” reads 9020 fluorescence intensity (a.u.).

Source of the values: PMC7819943, “Rice protein-binding microarrays: a tool to detect cis-acting elements near promoter regions in rice”.
